# Values quoted from earlier work as cited in patent US20230055457A1, “CELL EXPANSION METHODS FOR PREVENTING CELL SENESCENCE AND PRESERVING THE THERAPEUTIC POTENCY OF HUMAN MESENCHYMAL STEM CELLS” (THE FLORIDA STATE UNIVERSITY RESEARCH FOUNDATION, INC., priority 2020, published 2023).
# For at least one compound, name, drawing or mass did not settle the structure.
# Test system: muscle stem cells (muscle-SCs) and hematopoietic stem cells (HSC)
# Conditions: aged muscle-SCs and HSCs, restoring autophagy; cited from earlier work
smiles,measurement,value
CO[C@H]1C[C@@H]2CC[C@@H](C)[C@@](O)(O2)C(=O)C(=O)N2CCCC[C@H]2C(=O)O[C@H]([C@H](C)C[C@@H]2CC[C@@H](O)[C@H](OC)C2)CC(=O)[C@H](C)/C=C(\C)[C@@H](O)[C@@H](OC)C(=O)[C@H](C)C[C@H](C)/C=C/C=C/C=C/1C [rapamycin],stem cell functions in vivo,restored
